Test results: PMC3974651
Results are given in words; binding and its absence hold for the method and conditions named. For part of these data: In cells and extracts the contact can be indirect. Some binding calls cover weakened binding; strength is not graded here. Sequences can lack the tags named with a protein.

T1: SQUAMOSA PROMOTER BINDING PROTEIN LIKE 2 (SPL2), yeast two-hybrid fusion (Arabidopsis thaliana) (UniProt Q9S840)
T1 sequence: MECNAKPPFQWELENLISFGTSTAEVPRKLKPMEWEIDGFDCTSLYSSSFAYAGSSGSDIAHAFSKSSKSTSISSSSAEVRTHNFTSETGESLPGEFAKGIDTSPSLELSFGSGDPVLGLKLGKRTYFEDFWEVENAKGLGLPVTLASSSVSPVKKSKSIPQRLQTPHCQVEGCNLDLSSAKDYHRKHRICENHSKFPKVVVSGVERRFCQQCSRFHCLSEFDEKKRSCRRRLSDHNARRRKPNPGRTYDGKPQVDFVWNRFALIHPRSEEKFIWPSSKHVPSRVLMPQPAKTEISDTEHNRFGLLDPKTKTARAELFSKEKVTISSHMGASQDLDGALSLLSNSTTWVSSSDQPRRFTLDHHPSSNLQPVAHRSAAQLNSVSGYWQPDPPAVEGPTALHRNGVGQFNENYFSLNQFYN

T2: SQUAMOSA PROMOTER BINDING PROTEIN LIKE 9 (SPL9), yeast two-hybrid fusion (Arabidopsis thaliana) (UniProt Q700W2)
T2 sequence: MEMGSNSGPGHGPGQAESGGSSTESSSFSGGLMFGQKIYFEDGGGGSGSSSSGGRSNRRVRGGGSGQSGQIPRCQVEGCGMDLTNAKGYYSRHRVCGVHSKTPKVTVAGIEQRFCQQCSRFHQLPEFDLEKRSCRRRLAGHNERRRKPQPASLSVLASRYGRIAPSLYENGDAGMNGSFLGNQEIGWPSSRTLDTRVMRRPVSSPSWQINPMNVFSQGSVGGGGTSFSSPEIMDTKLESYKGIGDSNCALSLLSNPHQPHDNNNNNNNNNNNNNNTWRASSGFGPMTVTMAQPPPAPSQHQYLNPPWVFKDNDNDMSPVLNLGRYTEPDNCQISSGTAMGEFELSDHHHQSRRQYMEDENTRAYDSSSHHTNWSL

T3: SQUAMOSA PROMOTER BINDING PROTEIN LIKE 9 (SPL9), miRNA-resistant version, fused to the C-terminal half of luciferase (Arabidopsis thaliana) (UniProt Q700W2)
T3 sequence: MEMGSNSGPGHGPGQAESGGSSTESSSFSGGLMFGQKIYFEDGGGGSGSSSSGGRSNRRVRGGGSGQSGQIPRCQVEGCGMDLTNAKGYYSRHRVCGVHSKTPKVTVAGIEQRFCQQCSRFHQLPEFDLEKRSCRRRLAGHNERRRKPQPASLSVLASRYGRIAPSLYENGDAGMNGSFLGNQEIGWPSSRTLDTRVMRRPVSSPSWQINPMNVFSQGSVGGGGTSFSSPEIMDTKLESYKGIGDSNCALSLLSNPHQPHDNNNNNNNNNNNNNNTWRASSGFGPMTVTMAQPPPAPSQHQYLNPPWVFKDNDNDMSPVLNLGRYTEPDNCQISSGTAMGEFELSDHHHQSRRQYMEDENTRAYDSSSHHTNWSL


How the values were obtained:
[1] = target: T1, SQUAMOSA PROMOTER BINDING PROTEIN LIKE 2 (SPL2), yeast two-hybrid fusion (Arabidopsis thaliana); assay: two-hybrid; Matchmaker GAL4 Two-Hybrid System, yeast strain AH109, growth on SD/-Leu/-Trp/-His with 15 mM 3-amino-1,2,4-triazole; three independent clones for each transformation
[2] = target: T2, SQUAMOSA PROMOTER BINDING PROTEIN LIKE 9 (SPL9), yeast two-hybrid fusion (Arabidopsis thaliana); assay: as above
[3] = target: T3, SQUAMOSA PROMOTER BINDING PROTEIN LIKE 9 (SPL9), miRNA-resistant version, fused to the C-terminal half of luciferase (Arabidopsis thaliana); assay: split reporter; split firefly luciferase complementation; LOMs-nLUC and cLUC-rSPL9 co-infiltrated by Agrobacterium into N. benthamiana leaves with 35S::P19-HA; 0.8 mM luciferin infiltrated after 3 days; cLUC and nLUC alone as controls

| binding [1] | binding [2] | binding [3] | Binder |
| --- | --- | --- | --- |
| binds | binds | – | LOST … 3 (LOM3), yeast two-hybrid fusion (protein, UniProt O81316 1-558) MPLPFEEFQGKGISCFSSFSSSFPQPPSSPLLSHRKARGGEEEEEEVPAAEPTSVLDSLISPTSSSTVSSSHGGNSAVGGGGDATTDEQCGAIGLGDWEEQVPHDHEQSILGLIMGDSTDPSLELNSILQTSPTFHDSDYSSPGFGVVDTGFGLDHHSVPPSHVSGLLINQSQTHYTQNPAAIFYGHHHHTPPPAKRLNPGPVGITEQLVKAAEVIESDTCLAQGILARLNQQLSSPVGKPLERAAFYFKEALNNLLHNVSQTLNPYSLIFKIAAYKSFSEISPVLQFANFTSNQALLESFHGFHRLHIIDFDIGYGGQWASLMQELVLRDNAAPLSLKITVFASPANHDQLELGFTQDNLKHFASEINISLDIQVLSLDLLGSISWPNSSEKEAVAVNISAASFSHLPLVLRFVKHLSPTIIVCSDRGCERTDLPFSQQLAHSLHSHTALFESLDAVNANLDAMQKIERFLIQPEIEKLVLDRSRPIERPMMTWQAMFLQMGFSPVTHSNFTESQAECLVQRTPVRGFHVEKKHNSLLLCWQRTELVGVSAWRCRSS |
| – | – | binds | LOST … 3 (LOM3), miRNA-resistant version, fused to the N-terminal half of luciferase (protein, UniProt O81316 1-558) MPLPFEEFQGKGISCFSSFSSSFPQPPSSPLLSHRKARGGEEEEEEVPAAEPTSVLDSLISPTSSSTVSSSHGGNSAVGGGGDATTDEQCGAIGLGDWEEQVPHDHEQSILGLIMGDSTDPSLELNSILQTSPTFHDSDYSSPGFGVVDTGFGLDHHSVPPSHVSGLLINQSQTHYTQNPAAIFYGHHHHTPPPAKRLNPGPVGITEQLVKAAEVIESDTCLAQGILARLNQQLSSPVGKPLERAAFYFKEALNNLLHNVSQTLNPYSLIFKIAAYKSFSEISPVLQFANFTSNQALLESFHGFHRLHIIDFDIGYGGQWASLMQELVLRDNAAPLSLKITVFASPANHDQLELGFTQDNLKHFASEINISLDIQVLSLDLLGSISWPNSSEKEAVAVNISAASFSHLPLVLRFVKHLSPTIIVCSDRGCERTDLPFSQQLAHSLHSHTALFESLDAVNANLDAMQKIERFLIQPEIEKLVLDRSRPIERPMMTWQAMFLQMGFSPVTHSNFTESQAECLVQRTPVRGFHVEKKHNSLLLCWQRTELVGVSAWRCRSS |
